# Measured values taken from PubChem BioAssay AID687031 (Broad Institute, 2013).
# In all, about 1,400 compounds went through this assay and about 50 (4%) were called active.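 How the source made its calls: active means fitted curve reaches 30% CPE protection at or below the top valid dose, with every test run called active; inconclusive means test runs disagree, some active and some not; inactive means every test run inactive, including effects in the wrong direction.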 The list shows a part of the results. Potency and affinity values are given separately.
# Assay: antiviral rescue of DENV2-infected BHK-21 cells – cell-based, ATP luminescence, cherry-pick, dose response (AID 687031);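 further: 0% = infected DMSO wells and 100% = uninfected cell wells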
# Conditions: BHK-21 DENV2 CPE protection, 5 d; at 19.5 µM (top of the series) unless noted
row,SMILES,CPE protection (higher = active)
1,Cc1noc(C)c1NC(=O)N(C)C[C@H]1OCCCC[C@H](C)Oc2ccc(NC(=O)NC(C)C)cc2C(=O)N([C@H](C)CO)C[C@@H]1C,inactive: 28.6%
2,Cc1ccc(S(=O)(=O)Nc2ccc3c(c2)C(=O)N([C@@H](C)CO)C[C@@H](C)[C@H](CN(C)S(=O)(=O)c2ccc(Cl)cc2)OCCCC[C@@H](C)O3)cc1,inactive: -29.8%
3,CCCCc1cc(=O)oc2cc(C)cc(OCC(=O)N3CCC(C(N)=O)CC3)c12,inactive: -11.2%
4,CN(C)C1(CNC(=O)C2CCN(S(=O)(=O)c3ccccc3C(F)(F)F)CC2)CCCCC1,inactive: 2.84%
5,Cc1ccc(NC(=O)C2CCCCC2)cc1C,inactive: 14.2%
6,CCOC(=O)[C@]12CCC=C1N(Cc1ccccc1)C(=O)[C@H](CC(=O)N1CCCC1)C2,inactive: -6.62%
7,CCOC(=O)c1ccc(S(=O)(=O)N2CCC(N3CCCCC3)CC2)cc1,inactive: -21.5%
8,Cc1cc2c(cc1S(=O)(=O)N1CCN(c3cccc(C(F)(F)F)c3)CC1)OCC(=O)N2,inactive: -26.9%
9,CCCNC(=O)N1C[C@H](O)COC[C@@H]2O[C@@H](CC(=O)N3CCOCC3)CC[C@H]21,inactive: -1.19%
10,COc1ccc(COCCN2CCN(S(=O)(=O)c3ccc(C)cc3)CCC2=O)cc1,inactive: 5.92%
11,O=C(C[C@H]1C(=O)N(Cc2ccccc2)C[C@@H]1Cc1ccccc1)Nc1ccc(Br)cc1,inactive: -3.63%
12,O=C1[C@@H](Oc2ccccc2)[C@@H](c2ccncc2)N1c1ccncc1,inactive: -3.03%
13,COc1ccc(S(=O)(=O)Nc2cccc3c2O[C@@H](CN(C)S(C)(=O)=O)[C@@H](C)CN([C@@H](C)CO)C3=O)cc1,inactive: 16.5%
14,CCOC(=O)c1ccc(NC(=O)c2nc[nH]c2C(=O)NC2CCN(C(=O)OC(C)(C)C)CC2)cc1,inactive: 10.6%
15,CNC(=O)c1[nH]cnc1C(=O)Nc1ccc(Cl)cc1,inactive: -6.09%
16,COc1ccc(N2CCN(c3cc(C(=O)NC4CCCCC4)ncn3)CC2)cc1OC,inactive: 3.15%
17,C[C@H](CO)N1C[C@H](C)[C@@H](CN(C)C(=O)Cc2ccccc2)OCCCC[C@H](C)Oc2ccc(NS(=O)(=O)c3ccc(F)cc3)cc2C1=O,inactive: 6.37%
18,Nc1ccc(N2C(=O)c3ccccc3C2=O)c(Cl)c1,inactive: -7.96%
19,COc1ccccc1C(=O)N1[C@@H](C(C)C)COc2cc(Br)ccc2S1(=O)=O,inactive: -34.3%
20,COc1ccc(-c2cc(N3C(=O)Nc4ccccc4N3O)n[nH]2)cc1OC,inactive: -9.71%
21,CC(=O)Nc1cc(-c2ccc(C(=O)NC3CC3)cc2)cn2c(-c3cccc(C(F)(F)F)c3)cnc12,inactive: -8.05%
22,COC(=O)N1CCCCC1c1cc(C(=O)Nc2ccccc2Cl)no1 (stereo not drawn),inactive: -13.9%
23,CCN(CC(=O)Nc1ccc(NC(C)=O)cc1)C(=O)Cc1c(Cl)cccc1Cl,inactive: 3.67%
24,CC1(C#N)c2ccccc2C(Br)=CN1C(=O)c1ccccc1 (stereo not drawn),inactive: -21.5%
25,COc1ccc(C2=Nc3ccccc3N(C(=O)c3ccncc3)C2C(=O)NC(C)C)cc1 (stereo not drawn),inactive: 5%
26,COc1ccc(CN(C)C[C@H]2OCCCC[C@@H](C)Oc3ccc(NC(=O)NC(C)C)cc3C(=O)N([C@H](C)CO)C[C@H]2C)cc1,inactive: 13.6% [at 21 µM]

row,SMILES,CPE protection (higher = active)
1,O=C(COc1ccccc1)NCC(=O)N/N=C/c1ccc(Br)cc1,inactive: -10.9%
2,CC[C@H](C)C(=O)O[C@H]1C[C@@H](C)C=C2C=C[C@H](C)[C@H](CC[C@@H]3C[C@@H](O)CC(=O)O3)[C@H]21,inactive: 16.6%
3,COc1ccc(C)cc1NC(=O)C1CCN(S(=O)(=O)c2cccc3cccnc23)CC1,inactive: -19.9%
4,O=C1OC(N2C(=O)CC[C@H]2C(=O)NCC2CCCO2)c2ccccc21 (stereo partly drawn),inactive: -18.2%
5,O=C(NCC1CCCCC1)[C@@H]1[C@@H](CO)[C@@H]2Cn3c(ccc(-c4cccnc4)c3=O)[C@H]1N2,inactive: 20.2% [at 10 µM]
6,COc1ccc(CN(CCC(c2ccccc2)C2CCOC(C)(C)C2)C(C)=O)cc1 (stereo not drawn),inactive: 25.5%
7,COc1ccc(CCC(=O)Nc2cc(S(=O)(=O)N3CCOCC3)ccc2OC(C)C)cc1,inactive: -14.1%
8,C[C@H](CO)N1C[C@H](C)[C@H](CN(C)C(=O)Nc2ccc(F)cc2)OCCCC[C@H](C)Oc2ccc(NC(=O)c3ccccc3)cc2C1=O,inactive: -8.7%
9,COc1ccc(NC(=O)N2C[C@@H](O)COC[C@@H]3O[C@H](CC(=O)NC4Cc5ccccc5C4)CC[C@H]32)cc1,inactive: 6.49%
10,O=C(Nc1cc(F)cc(F)c1)c1sc(Cl)nc1-c1ccccc1,inactive: 9.12%
11,C[C@H](CO)N1C[C@H](C)[C@@H](CN(C)Cc2ccc(Oc3ccccc3)cc2)Oc2ccc(NC(=O)Cn3cnnn3)cc2CC1=O,inactive: 11.8%
12,COc1cc(NC(=O)c2nccn2C)cc(C(=O)Nc2cccc(C(F)(F)F)c2)c1,inactive: 2.37%
13,Cc1c(C(=O)NCc2cccnc2)oc2ccc(S(=O)(=O)N3CC(C)CC(C)C3)cc12 (stereo not drawn),inactive: 5.46%
14,C[C@H](CO)N1C[C@H](C)[C@@H](CN(C)C(=O)Nc2ccc(C(F)(F)F)cc2)OCCCC[C@H](C)Oc2ccc(NS(=O)(=O)c3ccc(F)cc3)cc2C1=O,inactive: -0.779%
15,COc1ccc(NS(=O)(=O)c2cccs2)cn1,inactive: 5.62%
16,Cc1ccc2oc3c(c(=O)c2c1)C(c1cccc(Cl)c1)N(CCCN1CCOCC1)C3=O (stereo not drawn),inactive: -17.4%
17,COc1ccccc1Nc1ncnc2c1c(C)c(C)n2CCCN(C)C,inactive: 25.7%
18,O=C(O)c1ccc(CNC(=O)C2CCCN2C(=O)OCc2ccccc2)cc1 (stereo not drawn),inactive: 1.02%
19,CCOc1ccc2[nH]c3ncccc3c(=O)c2c1,inactive: -4.21%
20,CC(=O)Nc1ccc2c(c1)C(=O)N(C)[C@H]1CC[C@H](CC(=O)Nc3cccc(C(C)C)c3)O[C@@H]1CO2,inactive: 19.4%
21,CCCn1c(-c2ccc[nH]c2=O)nc2cc(C)c(C)cc21,inactive: 3.25%
22,O=C(NCC1CC1)C1(S(=O)(=O)c2ccccc2)CC=CC1,inactive: 6.73%
23,COc1ccc(C(C)NC(=O)c2ccccc2Cl)cc1OC (stereo not drawn),inactive: -4.47%
24,COc1c(Cl)cc(Br)c(OC)c1C(=O)NC(=O)Nc1nc(C)cc(C)n1,inactive: 2.64%
25,C[C@H]1CN([C@@H](C)CO)C(=O)c2cccc(NC(=O)C3CCCCC3)c2O[C@@H]1CN(C)Cc1ccc(C(=O)Nc2ccccc2N)cc1,inactive: -4.75%
26,COc1ccc(OC)c(-c2cc(C(=O)NC3CCCC3)c3ccccc3n2)c1,inactive: -28.9%

row,SMILES,CPE protection (higher = active)
1,Cc1cccnc1,inactive: -1.59%
2,CCCCC[C@H]1CN(CCc2ccccc2)C(=O)[C@@H]1CC(=O)NCc1ccc(OC)cc1,inactive: -4.13%
3,O[C@H]1CN(CC2CCCCC2)[C@@H](c2ccc(Cl)cc2)C[C@@H]1n1cc(C2CC2)nn1,inactive: 34.8%
4,O=C(CC1NCCN(Cc2ccccc2)C1=O)Nc1ccccc1 (stereo not drawn),inactive: -13%
5,COC(=O)c1c(NC(=O)CC2Sc3ccc(C(F)(F)F)cc3NC2=O)sc(C)c1C (stereo not drawn),inactive: -25.4%
6,Cc1cc(F)ccc1S(=O)(=O)Nc1ncnc2scc(-c3ccc(F)cc3)c12,inactive: -25.9%
7,COC(=O)C[C@H]1c2cc(C(F)(F)F)ccc2S(=O)(=O)N1Cc1ccc(OC)cc1,inactive: 14.6%
8,O=C(NC1(Cc2ccccc2)CCN(CCc2cccs2)C1=O)c1ccccc1 (stereo not drawn),inactive: 5.82%
9,COc1ccc(S(=O)(=O)N(CC(C)C)CC(C)C)c2cccnc12,inactive: -14.7%
10,Cc1ccc(NC(=O)C2CCN(S(C)(=O)=O)CC2)cc1Cl,inactive: 20.7%
11,C[C@@H]1CCCCO[C@H](CN(C)S(C)(=O)=O)[C@@H](C)CN([C@H](C)CO)C(=O)c2cc(NC(=O)CCC(F)(F)F)ccc2O1,inactive: -9.98%
12,CCNC(=O)C[C@H]1CC[C@H]2[C@@H](COC[C@H](O)CN2C(=O)c2cccnc2)O1,inactive: 24.6%
13,CN(C)c1ccc(-c2cc3ccccc3c(=O)o2)cc1,inactive: 25%
14,CCOc1ncccc1C(=O)OCC(=O)NCc1ccc(C(=O)OC)cc1,inactive: -12.9%
15,CCC(=O)N1C[C@H](O)COC[C@H]2O[C@@H](CC(=O)NCc3ccc(Oc4ccccc4)cc3)CC[C@@H]21,inactive: 4.3%
16,CN(Cc1ccccc1)C(=O)c1nc[nH]c1C(=O)N1CCN(C(=O)OC(C)(C)C)CC1,inactive: 5.46%
17,O=C(CCc1nnc(Cc2c[nH]c3ccccc23)o1)NCCC1CCCCO1 (stereo not drawn),inactive: 17.1%
18,CC(C)(C)c1ccc(C(=O)Nc2ccc3c(c2)C(=O)NC3=O)cc1,inactive: -8.18%
19,COCCNC(=O)C1(C)CCCN(C(=O)c2ccc(C(F)(F)F)cc2)C1 (stereo not drawn),inactive: 16.3%
20,F[B-](F)(F)c1cnc2ccccc2c1,inactive: 3.87%
21,C[C@H](CO)N1C[C@H](C)[C@@H](CN(C)C(=O)CCCN(C)C)OCCCC[C@H](C)Oc2ccc(NC(=O)CCCN(C)C)cc2C1=O,inactive: -4.32%
22,O=C(Nc1cccc(Cl)c1)c1ccccc1,inactive: -11.5%
23,CC(C)CCCN1CCN=C1Nc1ccccc1,inactive: -1.07%
24,Cc1ccc(F)cc1C(=O)N1CCCCC1c1cc(C(=O)NC(C)C)no1 (stereo not drawn),inactive: 0.927%
25,Cc1cccnc1NC(=O)c1cccc(S(=O)(=O)N2CCCC2)c1,inactive: 7.84%
26,CC(C)(C)c1ccc(NC(=O)NC2CCCc3ccccc32)cc1 (stereo not drawn),inactive: -3.54%

# Random excerpt: three records from the list
row,SMILES,CPE protection (higher = active)
25,Cc1cccnc1NC(=O)c1cccc(S(=O)(=O)N2CCCC2)c1,inactive: 7.84%
16,CN(Cc1ccccc1)C(=O)c1nc[nH]c1C(=O)N1CCN(C(=O)OC(C)(C)C)CC1,inactive: 5.46%
13,CN(C)c1ccc(-c2cc3ccccc3c(=O)o2)cc1,inactive: 25%

# As a working copy, part of the list above.
row,SMILES,CPE protection (higher = active)
3,O[C@H]1CN(CC2CCCCC2)[C@@H](c2ccc(Cl)cc2)C[C@@H]1n1cc(C2CC2)nn1,inactive: 34.8%
4,O=C(CC1NCCN(Cc2ccccc2)C1=O)Nc1ccccc1 (stereo not drawn),inactive: -13%
5,COC(=O)c1c(NC(=O)CC2Sc3ccc(C(F)(F)F)cc3NC2=O)sc(C)c1C (stereo not drawn),inactive: -25.4%
6,Cc1cc(F)ccc1S(=O)(=O)Nc1ncnc2scc(-c3ccc(F)cc3)c12,inactive: -25.9%
